Experiment [1] has as its target T1, Psf1 (endogenous) (human (endogenous in HaCaT and HEK-293T)) (UniProt Q14691).
T1 sequence: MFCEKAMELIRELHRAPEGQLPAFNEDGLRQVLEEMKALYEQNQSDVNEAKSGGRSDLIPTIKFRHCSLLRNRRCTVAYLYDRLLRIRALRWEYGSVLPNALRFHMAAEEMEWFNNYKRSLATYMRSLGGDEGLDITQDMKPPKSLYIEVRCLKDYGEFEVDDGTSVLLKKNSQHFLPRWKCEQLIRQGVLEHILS
The experiment is described as follows: condition: only with 15 µM CA1 on the immunoprecipitated complexes for 30 min; co-IP; as a2, but the beads with the immunoprecipitated complexes were incubated with 15 µM coumermycin-A1 (CA1) for 30 min, washed, immunoblotted.

Amino acid sequences for entries named in this document (tags omitted).
UniProt Q9BRT9: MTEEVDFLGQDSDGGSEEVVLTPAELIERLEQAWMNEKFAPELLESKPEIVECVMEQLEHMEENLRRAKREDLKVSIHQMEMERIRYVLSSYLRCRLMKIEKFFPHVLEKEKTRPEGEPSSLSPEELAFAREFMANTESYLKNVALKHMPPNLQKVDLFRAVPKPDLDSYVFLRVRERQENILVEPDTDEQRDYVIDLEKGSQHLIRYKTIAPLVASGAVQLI
UniProt P49736: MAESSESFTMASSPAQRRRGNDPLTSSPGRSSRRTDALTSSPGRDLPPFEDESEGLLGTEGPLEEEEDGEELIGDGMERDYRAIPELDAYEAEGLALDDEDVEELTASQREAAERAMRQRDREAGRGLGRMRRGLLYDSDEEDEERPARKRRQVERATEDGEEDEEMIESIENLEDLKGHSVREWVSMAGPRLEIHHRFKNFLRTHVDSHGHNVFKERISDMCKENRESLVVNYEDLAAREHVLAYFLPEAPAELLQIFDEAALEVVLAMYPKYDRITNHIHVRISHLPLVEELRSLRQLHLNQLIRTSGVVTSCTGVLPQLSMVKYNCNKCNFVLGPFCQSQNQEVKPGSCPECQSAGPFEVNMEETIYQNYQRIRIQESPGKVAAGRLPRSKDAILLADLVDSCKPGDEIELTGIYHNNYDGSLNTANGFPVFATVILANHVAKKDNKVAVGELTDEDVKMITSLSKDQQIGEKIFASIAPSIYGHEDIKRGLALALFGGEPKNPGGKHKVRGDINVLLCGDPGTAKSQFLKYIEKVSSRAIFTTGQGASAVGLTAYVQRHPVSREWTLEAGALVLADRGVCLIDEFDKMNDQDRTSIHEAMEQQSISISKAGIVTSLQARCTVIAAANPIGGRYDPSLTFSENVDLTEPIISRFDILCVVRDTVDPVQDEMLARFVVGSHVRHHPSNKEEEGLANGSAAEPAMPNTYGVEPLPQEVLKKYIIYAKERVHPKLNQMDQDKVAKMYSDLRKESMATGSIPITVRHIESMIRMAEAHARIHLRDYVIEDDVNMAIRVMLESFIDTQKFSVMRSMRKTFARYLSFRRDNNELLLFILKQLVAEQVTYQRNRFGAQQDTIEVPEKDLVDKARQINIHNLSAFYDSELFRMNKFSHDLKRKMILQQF

Experiment [2] addresses T1, Psf1 (endogenous) (human (endogenous in HaCaT and HEK-293T)). Nature of the experiment: co-IP; nuclear extract of synchronized HaCaT cells (20 hrs after release, S-phase), 200 mM potassium acetate, 0.01% Triton X-100, 4°C; IP with anti-Psf1 or anti-Mcm2 (IgG control), protein A/G agarose; beads incubated with DMSO for 30 min, washed, immunoblotted.
Experiment [3] concerns the target T2, human 6His2Flag-Cdc45 (human) (UniProt O75419).
T2 sequence: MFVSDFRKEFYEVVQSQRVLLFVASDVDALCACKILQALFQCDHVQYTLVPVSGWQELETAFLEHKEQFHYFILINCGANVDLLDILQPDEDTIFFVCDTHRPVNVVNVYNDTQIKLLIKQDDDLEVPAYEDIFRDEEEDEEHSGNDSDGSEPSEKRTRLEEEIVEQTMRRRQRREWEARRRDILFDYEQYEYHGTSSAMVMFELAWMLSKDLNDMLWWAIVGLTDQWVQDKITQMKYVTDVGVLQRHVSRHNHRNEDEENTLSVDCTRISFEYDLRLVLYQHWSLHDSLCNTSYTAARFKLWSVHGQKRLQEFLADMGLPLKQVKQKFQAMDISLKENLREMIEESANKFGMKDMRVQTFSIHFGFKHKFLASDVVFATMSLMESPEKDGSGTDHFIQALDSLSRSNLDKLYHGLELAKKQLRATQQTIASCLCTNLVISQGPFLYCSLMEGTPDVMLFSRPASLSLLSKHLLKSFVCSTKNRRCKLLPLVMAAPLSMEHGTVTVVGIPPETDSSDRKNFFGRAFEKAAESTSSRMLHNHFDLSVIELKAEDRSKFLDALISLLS
The experiment is described as follows: co-purification of co-expressed subunits (glutathione beads, Q-Sepharose, anti-Flag beads, glycerol gradient); 11 human CMG subunits co-expressed in High Five cells; captured by GST-Sld5 on glutathione beads (0.42 M potassium acetate), Q-Sepharose, then by 6His2Flag-Cdc45 on anti-Flag M2 beads, PreScission cleavage, 15-40% glycerol gradient; subunits checked by silver staining and immunoblotting.

The next experiment deals with human GST-Sld5 (human) (UniProt Q9BRT9). The experiment is described as above.

No constants are given. Whether binding was seen depends on the method and setting. For some of these results: Binding seen in cells or lysates may run through a third protein. Some entries that bind do so weakly or less than the wild type. For some of these results: Sequences can lack the tags named with a protein.

Regarding “Mcm2 (endogenous) (from UniProt P49736 1-904)”, the binding result in experiment [1] was “no binding”; in experiment [2], “binds”.

Consider “human Mcm2 (recombinant hCMG subunit) (from UniProt P49736 1-904)”, for which the binding entry (in experiment [3]; with human GST-Sld5 (human)) was “binds” each time.

For the origin of these results see publication PMC10441460, “Identification of Selective ATP-Competitive CMG Helicase Inhibitors for Cancer Intervention that Disrupt CMG-Replisome Function” (Research Square, 2023).
